# Results as given in PubChem BioAssay AID504834 (National Center for Advancing Translational Sciences (NCATS), 2011).
# Hit rate of the full screen: of about 320,000 compounds, about 22,000 (6.9%) were called active. This list was built around the results that the source calls inconclusive (neither active nor inactive); the mix of calls is not that of the screen. Calls come from the whole dose curve; as a rule, active = well fitted inhibition curve with a large enough effect; inconclusive = small, poorly fitted or top-dose-only effect, or another doubt; inactive = no such curve, though single readings can be large or run the other way. Where the call is inconclusive, the potency comes from a doubtful curve fit.
# Assay: Primary qHTS for delayed death inhibitors of the malarial parasite plastid, 96 hour incubation
# Details: P. falciparum luciferase reporter growth; series mostly up to 28.7 µM
# Method in brief: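 Infected RBCs, 2% Hct / 0.05% parasitemia final; luciferase-reporter P. falciparum; cpd 96 h, 37 C, 5% CO2; luciferase detection reagent; luminescence.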
# Potency is the fitted concentration of half-maximal effect.
row,SMILES,Potency
1,Cc1ccc(Nc2nc(N)c([N+](=O)[O-])c(N3CCOCC3)n2)cc1,"inconclusive: 9.28 µM [inhibitor, partial curve, poor fit]"
2,O=C(Cc1ccccc1)Nc1nnc(-c2cccc([N+](=O)[O-])c2)s1,"inconclusive: 10.4 µM [inhibitor, single point]"
3,COc1ccc(S(=O)(=O)N2CCN=C2SCc2cccc(C)c2)cc1,"inconclusive: 18.5 µM [inhibitor, partial curve, poor fit]"
4,CCN(CC)S(=O)(=O)c1ccc(NCC2COc3ccccc3O2)c([N+](=O)[O-])c1 (stereo not given),"inconclusive: 11.7 µM [inhibitor, partial curve, poor fit]"
5,Cc1ccc(S(=O)(=O)n2cnc3cc([N+](=O)[O-])ccc32)c(C)c1C,inactive
6,Cc1ccc(NC(=O)c2cc(-n3cnnc3)ccc2Cl)c(C)c1,"inconclusive: 0.0047 µM [inhibitor, full curve, poor fit]"
7,CC(C)c1ccc(NC(=S)NCc2cccs2)cc1,"inconclusive: 18.5 µM [inhibitor, single point]"
8,O=C(Nc1ccc(Oc2cccnc2)cc1)C1CCCCN1Cc1ccc(CO)o1 (stereo not given),inactive
9,O=C(Cc1nn[nH]n1)Nc1ccc(F)cc1F,inactive
10,O=C(CCC(=O)N(c1ccc(F)cc1)C(C(=O)NC1CCCC1)c1ccncc1)Nc1cccnc1 (stereo not given),"inconclusive: 1.17 µM [inhibitor, partial curve, poor fit]"
11,CCc1nc(NCC2CCCO2)c(C#N)c2c1COC(C)(C)C2 (stereo not given),"inconclusive: 13.1 µM [inhibitor, single point]"
12,CC(=O)c1cccc(NCC(=O)Nc2cc(S(=O)(=O)N3CCCCC3)ccc2C)c1,active: 10.4 µM
13,COc1cc(OC)cc(C(=O)Nc2nnc(SCC(=O)NCc3ccco3)s2)c1,inactive
14,CCC(C)(C)C(=O)Nc1ccc(OC)cc1[N+](=O)[O-],inactive
15,CCOC(=O)C1CCN(Cc2ccc(OCc3ccccc3)c(OC)c2)CC1,"inconclusive: 18.5 µM [inhibitor, single point]"
16,Clc1ccc(CN2CCCCCC2)cc1,"inconclusive: 14.7 µM [inhibitor, single point]"
17,N=c1sccn1CC(=O)Nc1ccccc1Cc1ccccc1,"inconclusive: 18.5 µM [inhibitor, single point]"
18,COc1ccc(N2CCN(c3nc4c(C)cccn4c(=O)c3/C=C(\C#N)C(N)=O)CC2)cc1,"inconclusive: 10.4 µM [inhibitor, single point]"
19,Cn1cccc1/C=C1\C(=O)NC(=O)N(Cc2ccccc2Cl)C1=O,"inconclusive: 14.7 µM [inhibitor, partial curve]"
20,COc1ccccc1-c1nnc(SCC(=O)c2c(N)n(C3CC3)c(=O)[nH]c2=O)n1C,active: 11.7 µM
21,COc1ccc(NS(=O)(=O)c2cccc(C(=O)NNC(=O)CNC(=O)c3ccco3)c2)cc1,"inconclusive: 4.15 µM [inhibitor, partial curve, poor fit]"
22,O=C(COc1coc(CN2CCc3ccccc3C2)cc1=O)Nc1cccc([N+](=O)[O-])c1,"inconclusive: 5.22 µM [inhibitor, partial curve]"
23,Nc1c(Cl)ncnc1NCc1ccccc1,active: 0.415 µM
24,Cc1noc(C)c1COc1ccccc1C(=O)N(C)CC(=O)Nc1ccc(F)c(F)c1F,"inconclusive: 20.8 µM [inhibitor, partial curve, poor fit]"

row,SMILES,Potency
1,O=C(Nc1ncn[nH]1)c1ccc(S(=O)(=O)N2CCOCC2)cc1,inactive
2,COc1ccc(S(=O)(=O)Nc2c(C)n(C)n(-c3ccccc3)c2=O)c(Cl)c1Cl,"inconclusive: 11.7 µM [inhibitor, single point]"
3,O=C(NC1CCCc2ccccc21)C1CCC(CNc2c(N3CCOCC3)c(=O)c2=O)CC1 (stereo not given),active: 10.4 µM
4,CC(C)(C)NCC(O)COc1ccc(NC(=O)NC2CCCCC2)cc1 (stereo not given),"inconclusive: 10.7 µM [inhibitor, single point]"
5,COc1cccc(CN2CCC(n3nccc3NC(=O)CCOc3ccccc3)CC2)c1,active: 3.29 µM
6,COC(=O)c1ccc2c(=O)[nH]c(COC(=O)c3c(-c4ccccc4)noc3C)nc2c1,"inconclusive: 18.5 µM [inhibitor, partial curve, poor fit]"
7,COc1cccc(OC)c1C(=O)OCC(=O)N(c1ccccc1)C1CCCCC1,"inconclusive: 10.4 µM [inhibitor, single point]"
8,CCCn1c(SCc2cc(=O)oc3ccc4ccccc4c23)n[nH]c1=O,"inconclusive: 18.5 µM [inhibitor, single point]"
9,COc1ccccc1C(=O)NCCN1CCN(c2ccccc2)CC1,"inconclusive: 2.62 µM [inhibitor, full curve, poor fit]"
10,O=C(Cn1nc(Cl)nc1Cl)c1ccccc1,inactive
11,C/C(CC(C)(C)c1ccccc1)=N\NS(=O)(=O)c1ccccc1,inactive
12,Cc1nc2ccc(Br)cc2c2c1CC(CBr)O2 (stereo not given),"inconclusive: 18.5 µM [inhibitor, single point]"
13,COc1ccc2c(=O)c3c(=O)n(Cc4ccco4)c(C(C)C)nc3oc2c1,"inconclusive: 3.29 µM [inhibitor, full curve]"
14,CC(C)n1cnnc1SCC(=O)NC(=O)c1ccccc1,inactive
15,COc1cc(S(N)(=O)=O)c(OC)cc1N,inactive
16,CCN(CCNCC(O)COc1ccccc1C(C)C)c1cccc(C)c1 (stereo not given),active: 5.22 µM
17,O=C(NC(=S)NC1CCCC1)c1ccccc1Br,"inconclusive: 18.5 µM [inhibitor, single point]"
18,COC(=O)c1ccc(COc2ccc(/C=N/O)cc2OC)o1,"inconclusive: 9.28 µM [inhibitor, single point]"
19,CCOC(=O)C1(Cc2ccccc2C(F)(F)F)CCN(Cc2ccc(COC)o2)CC1,"inconclusive: 18.5 µM [inhibitor, single point]"
20,O=C(Nc1ccccc1N1CCOCC1)c1csc2c1CCCC2,active: 10.4 µM
21,COc1cc(OC)cc(-c2c(-c3cccs3)c3cc(Br)ccc3n2C)c1,"inconclusive: 13.1 µM [inhibitor, single point]"
22,COc1ccc(CNc2nc(C)c([N+](=O)[O-])c(C)c2C#N)cc1,"inconclusive: 10.4 µM [inhibitor, single point]"
23,CCOc1ccccc1N1CCN(Cc2cccc(OC)c2OC)CC1,inactive
24,COc1ccc(C2C(C(=O)N3CCCCC3)CC(=O)N2c2ccc(OC)cc2)cc1 (stereo not given),active: 9.28 µM

row,SMILES,Potency
1,O=C(Nc1cccc(C(F)(F)F)c1)c1ccc(N2CCNCC2)c([N+](=O)[O-])c1,"inconclusive: 16.5 µM [inhibitor, single point]"
2,COc1ccc(-c2cc(C(=O)N3CCN(c4ccccc4)CC3)c3ccccc3n2)cc1,inactive
3,CCOC(=O)c1nnn2c1nc(N1CCCCC1)c1ccccc12,"inconclusive: 11.7 µM [inhibitor, single point]"
4,COc1ccc2oc(C(=O)NCc3cc(OC)c(OC)cc3OC)c(C)c2c1,"inconclusive: 10.4 µM [inhibitor, partial curve]"
5,Cc1noc(C)c1C(=O)OCC(=O)NC(c1ccccc1)c1ccccc1,"inconclusive: 0.0828 µM [inhibitor, full curve, poor fit]"
6,CN(C)S(=O)(=O)N(CC(=O)N1CCOCC1)c1ccccc1,"inconclusive: 0.0657 µM [inhibitor, full curve, poor fit]"
7,CCOC(=O)C1CCN(c2c(N(C)Cc3ccco3)c(=O)c2=O)CC1,"inconclusive: 0.522 µM [inhibitor, full curve, poor fit]"
8,Cc1cc(C(=O)Nc2ccc3c(c2)OCCO3)ccc1[N+](=O)[O-],inactive
9,CCOC(=O)c1sc2ncn(/N=C/c3ccc(O)c(OC)c3)c(=O)c2c1C,inactive
10,Cc1ccc(C(=O)COC(=O)c2c(C)cc(=O)oc2C)cc1[N+](=O)[O-],inactive
11,CCN(CC)C(=O)c1ccc(N(Cc2ccccc2)S(C)(=O)=O)cc1,inactive
12,COCCNC(=O)CN(c1cc(Cl)ccc1OC)S(=O)(=O)c1ccc(C)c([N+](=O)[O-])c1,inactive
13,Cc1ccc(CSc2nnc(CNc3ccc(F)cc3)o2)cc1,inactive
14,Cc1cc(OCC(=O)NC(Cc2ccc(Cl)cc2)C(=O)O)c2c3c(c(=O)oc2c1)CCCC3 (stereo not given),"inconclusive: 18.5 µM [inhibitor, single point]"
15,COc1ccc(NC(=O)CNc2cc(S(=O)(=O)N3CCOCC3)ccc2NCC2CCCO2)cc1 (stereo not given),"inconclusive: 10.4 µM [inhibitor, single point]"
16,CCc1nc(Nc2cccc(O)c2)c2oc3ccccc3c2n1,"inconclusive: 16.5 µM [inhibitor, single point]"
17,COC(=O)C1(S(=O)(=O)C2(C(=O)OC)CCCC2)CCCC1,"inconclusive: 10.4 µM [inhibitor, single point]"
18,COc1ccc(C2N(C(=O)c3ccccc3)CCN2C(=O)c2ccccc2)cc1,"inconclusive: 13.1 µM [inhibitor, single point]"
19,CCCNNC(=O)C(O)(c1ccccc1)c1ccccc1,active: 10.4 µM
20,Cc1c(C(=O)O)c(-c2ccccc2)nn1-c1ccccc1,active: 2.94 µM
21,C=C[C@@H]1c2ccccc2N(S(=O)(=O)c2ccc(C)cc2)[C@H](c2ccccc2)C1(C#N)C#N,"inconclusive: 2.62 µM [inhibitor, full curve, poor fit]"
22,CNC(=O)CSc1nnc(-c2ccco2)n1-c1ccc(C)cc1,"inconclusive: 18.5 µM [inhibitor, single point]"

# A different layout for 15 compounds above:
row | SMILES | Potency
6 | Cc1ccc(NC(=O)c2cc(-n3cnnc3)ccc2Cl)c(C)c1 | inconclusive: 0.0047 µM [inhibitor, full curve, poor fit]
7 | CC(C)c1ccc(NC(=S)NCc2cccs2)cc1 | inconclusive: 18.5 µM [inhibitor, single point]
8 | O=C(Nc1ccc(Oc2cccnc2)cc1)C1CCCCN1Cc1ccc(CO)o1 (stereo not given) | inactive
9 | O=C(Cc1nn[nH]n1)Nc1ccc(F)cc1F | inactive
10 | O=C(CCC(=O)N(c1ccc(F)cc1)C(C(=O)NC1CCCC1)c1ccncc1)Nc1cccnc1 (stereo not given) | inconclusive: 1.17 µM [inhibitor, partial curve, poor fit]
11 | CCc1nc(NCC2CCCO2)c(C#N)c2c1COC(C)(C)C2 (stereo not given) | inconclusive: 13.1 µM [inhibitor, single point]
12 | CC(=O)c1cccc(NCC(=O)Nc2cc(S(=O)(=O)N3CCCCC3)ccc2C)c1 | active: 10.4 µM
13 | COc1cc(OC)cc(C(=O)Nc2nnc(SCC(=O)NCc3ccco3)s2)c1 | inactive
14 | CCC(C)(C)C(=O)Nc1ccc(OC)cc1[N+](=O)[O-] | inactive
15 | CCOC(=O)C1CCN(Cc2ccc(OCc3ccccc3)c(OC)c2)CC1 | inconclusive: 18.5 µM [inhibitor, single point]
16 | Clc1ccc(CN2CCCCCC2)cc1 | inconclusive: 14.7 µM [inhibitor, single point]
17 | N=c1sccn1CC(=O)Nc1ccccc1Cc1ccccc1 | inconclusive: 18.5 µM [inhibitor, single point]
18 | COc1ccc(N2CCN(c3nc4c(C)cccn4c(=O)c3/C=C(\C#N)C(N)=O)CC2)cc1 | inconclusive: 10.4 µM [inhibitor, single point]
19 | Cn1cccc1/C=C1\C(=O)NC(=O)N(Cc2ccccc2Cl)C1=O | inconclusive: 14.7 µM [inhibitor, partial curve]
20 | COc1ccccc1-c1nnc(SCC(=O)c2c(N)n(C3CC3)c(=O)[nH]c2=O)n1C | active: 11.7 µM
